Assay results: patent US7285687B2 (priority 2002, dated 2007)
For at least one compound, name, drawing or mass did not settle the structure.

Sequences of proteins named here, by UniProt entry; tags and fusion partners are left off.
UniProt P34972, whole entry: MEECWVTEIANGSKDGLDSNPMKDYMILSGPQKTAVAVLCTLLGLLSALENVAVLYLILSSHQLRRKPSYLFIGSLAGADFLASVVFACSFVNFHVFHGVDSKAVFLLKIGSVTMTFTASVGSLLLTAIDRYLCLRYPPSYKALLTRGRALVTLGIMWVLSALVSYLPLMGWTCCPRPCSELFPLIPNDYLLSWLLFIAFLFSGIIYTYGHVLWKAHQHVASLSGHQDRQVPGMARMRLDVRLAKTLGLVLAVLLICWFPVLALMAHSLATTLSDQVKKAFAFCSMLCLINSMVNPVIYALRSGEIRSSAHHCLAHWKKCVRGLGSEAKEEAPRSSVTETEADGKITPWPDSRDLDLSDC

Target: T1, CB2 receptor (Homo sapiens, UniProt P34972)
T1 construct: expressed in transfected cells
Experiment: CB2 binding procedure, displacement of [3H]CP-55,940 from membranes of transfected CHO cells
Settings: ratio of CB1 Ki to CB2 Ki
Description: Membranes for CB2 binding were obtained from CHO cells. The transfected cell line was maintained in Dublecco's Modified Eagle Medium (Gibco BRL, Grand Island, N.Y.) with 10% fetal clone II (HyClone Laboratories, Inc., Logan, Utah) plus 0.3 to 0.5 mg/ml G418 (to maintain selective pressure) under 5% CO2 at 37% C. Cells were harvested with 1 mM EDTA in phosphate-buffered saline and were centrifuged at 1000×g for 5 min at 4% C. The supernatant was saved and the P1 pellet was resuspended in centrifugation buffer. Homogenization and centrifugation were repeated twice and the combined supernatant fractions were centrifuged at 40,000×g for 30 min at 4% C. […] Protein concentrations were determined by the method of Bradford (1976) using Bio-Rad Protein Assay (Bio-Rad, Richmond, Calif.) and BSA standards (fatty acid free, Sigma Chemical Co., St. Louis, Mo.). […]
Binding was initiated by the addition of 50•g of quickly thawed P2 membranes to test tubes containing [^3H]CP-55,940 (final reaction concentration 0.5 nM), an appropriate concentration of unlabeled CP-55,940 or test drug, and sufficient quantity of assay buffer (50 mM Tris-HCl, 1 mM EDTA, 3 mM MgCl2, 5 mg/ml bovine serum albumin, pH 7.4) to bring the total incubation volume to 0.5 ml. […] After shaking for 30 min, the radioactivity present was determined by liquid scintillation spectrometry. […]

With `CCCCCCC(C)(C)c1cc(O)c(C2CCCC2)c(O)c1` [O-1424, 2-(Cyclopentyl)-dimethylheptyl-resorcinol] the CB1/CB2 was 14.
